Experimental data reported in PubChem BioAssay AID1487 (National Center for Advancing Translational Sciences (NCATS), 2009).
The other results are listed elsewhere or left out. Shown are side measurements of this screen, not its main read-out; they come without a call. The list favours compounds with an active or inconclusive main result. Potencies come from curve fits of mixed quality, noted in brackets.

Test: qHTS Assay for Modulators of Lamin A Splicing
Settings: HeLa LMNA splicing GFP/RFP minigene ratio, 48 h
How it was run: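 S3 HeLa stable clones carrying a lamin A-EGFP splicing minigene plus DsRed2 were seeded at 600 cells/well in Opti-MEM with 2% FBS, pin-dosed and incubated 48 h at 37°C. Acumen cytometry (488 nm) gave the GFP/RFP total-intensity ratio.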

[1] = measured here: GFP splicing reporter channel
[2] = measured here: RFP viability control channel

SMILES	AC50 [1]	AC50 [2]
CN(C)P(=NC(=O)COc1ccc(Cl)cc1Cl)(N(C)C)N(C)C	12.6 µM [rising, partial curve]	17.8 µM [rising, partial curve]
CCOc1ccc(NC(C)C(=O)N/N=C/c2ccc([N+](=O)[O-])cc2)cc1 (stereo unspecified)	6.31 µM [falling, partial curve, poor fit]	
COCc1c(C(=O)OC/C(O)=C(\C#N)c2nc3ccccc3[nH]2)oc2ccccc12	0.0447 µM [falling, full curve, poor fit]	
N#Cc1ccc(C(=O)NC2CCCc3ccccc32)cc1 (stereo unspecified)		35.5 µM [falling, partial curve]
O=C(c1ccccc1)c1cccc(NC(=O)c2ccc(Br)o2)c1		12.6 µM [rising, single point]
Cc1nn(Cc2ccc(F)cc2)c(C)c1NC(=O)c1noc2c1CCCCC2		14.1 µM [rising, single point]
Cc1cc(C(=O)NCc2cc(C)n(C)n2)sc1-c1ccccc1	14.1 µM [rising, single point]	14.1 µM [rising, partial curve]
Cc1ccccc1NC(=O)Cn1c(SCC(=O)Nc2ccc(F)cc2)nc2ccccc21	2.51 µM [falling, partial curve]	
CC(C)CN(C(=O)c1cccc(S(=O)(=O)N2CCCCC2)c1)C1CCS(=O)(=O)C1 (stereo unspecified)	22.4 µM [falling, partial curve]	
COc1ccc(C(=O)N2N=C(c3cccc(OC)c3)CC2(O)C(F)(F)F)cc1 (stereo unspecified)	15.8 µM [rising, single point]	22.4 µM [rising, single point]
COCCNc1nc(-c2c(C)noc2C)nc2ccccc12	35.5 µM [falling, single point]	
CCn1c(SCC(=O)Nc2ccc(OCc3ccccc3)cc2)nnc1-c1ccco1	12.6 µM [rising, single point]	14.1 µM [rising, partial curve]
CCCOc1ccccc1C1CC(=O)Nc2cc3c(cc21)OCO3 (stereo unspecified)		28.2 µM [falling, single point]
CN(C)c1ccc(/C=C2\CCC/C(=C\c3ccccc3)C2=O)cc1	11.2 µM [rising, single point]	22.4 µM [rising, partial curve, poor fit]
COc1ccc(/C=C/C(=O)c2ccc3c(c2)OCCO3)cc1[N+](=O)[O-]		35.5 µM [falling, single point]
COc1ccc(NC(=O)c2cc3c(-c4ccc(OC)c(OC)c4)nn(C)c3s2)cc1OC	15.8 µM [falling, single point]	35.5 µM [falling, single point]
O=C(COc1ccc(S(=O)(=O)NC2CCCCC2)cc1)N1CCN(c2cccc(Cl)c2)CC1		3.55 µM [rising, full curve]
CCn1cc(C(=O)N2CCN(c3ccc(OC)cc3)CC2)c(=O)c2cc(S(=O)(=O)N3CCCCC3)ccc21		0.0224 µM [rising, full curve, poor fit]
Cc1ccc(C(c2nnnn2CCc2ccccc2)N2CCC(C)CC2)cc1 (stereo unspecified)		12.6 µM [rising, partial curve, poor fit]

Exported with bars between the fields: two of the compounds above
SMILES | AC50 [1] | AC50 [2]
CC(C)CN(C(=O)c1cccc(S(=O)(=O)N2CCCCC2)c1)C1CCS(=O)(=O)C1 (stereo unspecified) | 22.4 µM [falling, partial curve] | 
COc1ccc(C(=O)N2N=C(c3cccc(OC)c3)CC2(O)C(F)(F)F)cc1 (stereo unspecified) | 15.8 µM [rising, single point] | 22.4 µM [rising, single point]

Further compounds follow.

SMILES	AC50 [1]	AC50 [2]
Cc1cc(SCC(=O)Nc2cccc(S(=O)(=O)NC3=NCCCCC3)c2)c(C)cc1Br	12.6 µM [rising, single point]	25.1 µM [rising, single point]
Cc1cccc(NC(=O)c2ccccc2NC(=O)C(C)(C)C)n1	6.31 µM [rising, partial curve]	
N#Cc1c(-c2cccc(Br)c2)cc(-c2cccnc2)nc1N		10 µM [rising, partial curve]
O=C1CC(c2ccsc2)c2ccc3ccccc3c2N1 (stereo unspecified)	20 µM [falling, single point]	7.08 µM [falling, partial curve]
Cc1ccc(N=C2NC(=O)/C(=C\c3ccc(C)s3)S2)cc1	0.355 µM [rising, full curve, poor fit]	1.12 µM [rising, partial curve, poor fit]
COc1cccc2sc(Nc3nc(-c4ccccn4)cs3)nc12		3.98 µM [rising, single point]
Cc1ccccc1Nc1sc(C(=O)c2ccc3c(c2)OCO3)c(N)c1S(=O)(=O)c1ccccc1		20 µM [rising, single point]
CN(C)C(=O)/C(C#N)=C\c1cc(Br)c(Sc2ccc(Cl)cc2)o1		10 µM [rising, partial curve]
Cc1nc2ccccc2c(=O)n1NC(=O)c1c(O)c2c(n(CC(C)C)c1=O)CCCC2		14.1 µM [rising, single point]
O=C(CSc1nc2ncc(Cl)cc2[nH]1)c1c[nH]c2ccccc12	20 µM [falling, single point]	25.1 µM [falling, single point]
Cc1cc(C)cc(NC(=O)CCCSc2nc3ccccc3[nH]2)c1	14.1 µM [rising, partial curve, poor fit]	11.2 µM [rising, partial curve]
Cc1c(NC(=O)c2ccc3c(c2)OCO3)cccc1-c1nc2ccccc2o1	20 µM [rising, partial curve]	20 µM [rising, partial curve]
CCn1c(SCc2ccccc2)nnc1-c1nonc1NC(C)=O		0.00316 µM [falling, full curve, poor fit]
O=C1c2ccccc2C(=O)N1CCc1nc2ccccc2c(=O)n1Cc1ccco1	31.6 µM [rising, single point]	
Cc1ccc(SCC2(O)CCN(S(=O)(=O)c3ccc(Cl)cc3)CC2)cc1		28.2 µM [rising, single point]
CCOc1ccc(NC(=O)CSc2n[nH]c(N)n2)c([N+](=O)[O-])c1	11.2 µM [rising, partial curve]	
O=c1nc(/C=C/c2cc([N+](=O)[O-])ccc2Cl)cc(C(F)(F)F)[nH]1	35.5 µM [falling, single point]	
Cc1cc(NC(=O)CN2C(=O)C(C)(C)c3ccccc32)ccc1Br	35.5 µM [falling, single point]	
COc1cccc(OCCOCC(O)CN2CCN(Cc3ccc(Cl)cc3)CC2)c1 (stereo unspecified)	12.6 µM [rising, single point]	22.4 µM [rising, partial curve]

SMILES	AC50 [1]	AC50 [2]
O=C(NC(=S)Nn1cnc2c(cnn2-c2ccccc2)c1=O)c1ccc(Cl)cc1		15.8 µM [rising, partial curve]
CC(=O)c1c(C)[nH]c(C(=O)OCC(=O)NCCc2ccc(Cl)cc2)c1C		12.6 µM [rising, single point]
CCC(=O)NCC(c1ccco1)N1CCN(c2ccc(OC)cc2)CC1 (stereo unspecified)		0.0708 µM [falling, full curve, poor fit]
CN(C)c1ccc(N=Nc2ccccc2C(=O)OCC(=O)NCC2CCCCC2)cc1	35.5 µM [rising, single point]	31.6 µM [rising, single point]
Cc1cc(Cl)c(S(=O)(=O)N2CCN(c3ccccc3)CC2)cc1OCC(N)=O		17.8 µM [rising, partial curve]
CCC(C)c1ccccc1NC(=O)Cc1coc2cc3c(cc12)CCC3 (stereo unspecified)		35.5 µM [rising, single point]
CCN1/C(=C/c2ccc3cc(C)ccc3[n+]2CC)Sc2cc(C)c(C)cc21	0.631 µM [rising, single point]	3.98 µM [rising, full curve]
CCCCN(C(=O)c1cccc2c(=O)c(C)c(-c3ccccc3)oc12)c1ccccc1	3.16 µM [falling, single point]	3.16 µM [falling, single point]
Cc1ccc(NC(=O)CSc2ccccc2NC(=O)c2ccccc2Cl)cc1Cl		17.8 µM [rising, single point]
Cc1c(/C=N\NC(=O)C2COc3ccc(C(C)(C)C)cc3O2)c2ccccc2n1C (stereo unspecified)		5.01 µM [rising, single point]
COc1ccccc1CNC(=O)[C@@H]1CCCN1C(=O)C1CCN(S(=O)(=O)c2ccc(C)cc2)CC1	0.891 µM [rising, partial curve]	15.8 µM [rising, partial curve, poor fit]
C/C=C/c1ccc(OCC(=O)Nc2ccc(C(N)=O)cc2)c(OC)c1		5.62 µM [rising, single point]
CC(=O)N1CCN(C(=S)c2ccc(N(C)C)cc2)CC1		5.62 µM [rising, single point]
CCN(CC)CCNC(=O)C(=O)NCC1OCCN1S(=O)(=O)c1ccc2c(c1)OCCO2 (stereo unspecified)	1 µM [rising, partial curve]	
Cc1ccc(C)c(NC(=O)CCC(=O)OC(C(=O)c2ccccc2)c2ccccc2)c1 (stereo unspecified)	5.01 µM [rising, single point]	3.55 µM [rising, single point]
COC(=O)c1sccc1NS(=O)(=O)c1ccc(OC)cc1		7.08 µM [rising, partial curve, poor fit]
O=C(CCCOc1ccc(Cl)cc1Cl)N1CCN(c2ccccn2)CC1	11.2 µM [rising, single point]	14.1 µM [rising, single point]
N=C(N)SCCc1cnc[nH]1	35.5 µM [rising, single point]	5.62 µM [falling, single point]
